In US20170152290A1:
These are yes or no findings as the source states them, for the method shown. Some results given as binding are weak or reduced against the parent protein; the word gives no strength.

Sequences of proteins named here, by UniProt entry; tags and fusion partners are left off. Residues count along the entry.
UniProt P30533, residues 35-357: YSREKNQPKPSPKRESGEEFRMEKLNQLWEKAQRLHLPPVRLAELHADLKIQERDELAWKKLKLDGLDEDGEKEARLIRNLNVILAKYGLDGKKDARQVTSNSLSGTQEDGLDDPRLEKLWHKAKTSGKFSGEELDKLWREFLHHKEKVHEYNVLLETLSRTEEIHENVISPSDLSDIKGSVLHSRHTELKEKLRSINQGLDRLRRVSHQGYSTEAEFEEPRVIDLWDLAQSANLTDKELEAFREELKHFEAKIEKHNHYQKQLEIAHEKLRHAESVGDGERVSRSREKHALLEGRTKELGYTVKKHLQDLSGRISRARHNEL

Experiments:
[1] = biological target: sLRP1-CIV (cluster IV of LRP1 fused to the constant region of a human IgG1) (human); assay: SPR (Biacore X), CM5 chip, sLRP1-CIV immobilised on Fc1 and rHSA on Fc2, analyte at 100 nM
[2] = biological target: sLRP1-CIV (cluster IV of LRP1 fused to the constant region of a human IgG1) (human); assay: SPR (Biacore X), sLRP1-CIV immobilised on CM5, analyte at 100 nM
[3] = biological target: sLRP1-CIV (cluster IV of LRP1 fused to the constant region of a human IgG1) (human); assay: SPR (Biacore X), sLRP1-CIV immobilised, maximal RU against RAP concentration

Measured: binding

Receptor-Associated Protein (RAP) (from UniProt P30533 35-357) (ligand)
binds: all assays above
